Assay results reported in PubChem BioAssay AID1487 (National Center for Advancing Translational Sciences (NCATS), 2009).
This is one part of the list. These are further read-outs of the screen, such as a control signal, another cell line or another target. No call is given for them. Most of these compounds were active or inconclusive in the main read-out, so they are no random draw. Words in brackets tell the shape of the fitted curve; partial curves, single points and poor fits give uncertain potencies.

Test: qHTS Assay for Modulators of Lamin A Splicing
Conditions: HeLa LMNA splicing GFP/RFP minigene ratio, 48 h
How it was run: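 Read-out is the ratio of GFP to DsRed2 object intensity, acquired by 488 nm laser-scanning cytometry on HeLa lamin A-EGFP minigene reporter cells. Compound incubation 48 hrs at 37 °C in Opti-MEM with 2% FBS; DMSO 0.5% final.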

[1] = measured here: RFP viability control channel
[2] = measured here: GFP splicing reporter channel

| Structure (SMILES) | AC50 [1] | AC50 [2] |
| --- | --- | --- |
| CCCC[C@@H]1C[C@H]1[C@@H](NC(=O)c1ccco1)c1ccc(Cl)cc1 | 35.5 µM [rising, single point] | – |
| CCCCC(=O)Nc1cccc(NC(=S)NC(=O)COc2ccccc2Cl)c1 | 5.62 µM [rising, single point] | – |
| CCS(=O)(=O)c1ccc2oc(SCC(=O)Nc3ccc(OC)cc3OC)nc2c1 | 5.62 µM [falling, single point] | 5.62 µM [falling, single point] |
| CC1CCc2nc(N)c(C#N)c(-c3cccn3C)c2C1 (stereo not given) | – | 12.6 µM [rising, single point] |
| Cc1ccc(OCC(=O)Nc2ccc(N3CCN(C(=O)c4ccco4)CC3)cc2)cc1 | – | 22.4 µM [falling, single point] |
| Cc1cc(NC(=O)CSc2nnc(-c3ccccc3)n2Cc2ccco2)no1 | 0.355 µM [falling, partial curve, poor fit] | – |
| CSc1ccc(-c2nnc(NC(=O)c3ccc4c(c3)OCCO4)o2)cc1 | 35.5 µM [rising, single point] | – |
| O=c1c2ccccc2nnn1CSc1nnc(-c2ccc3c(c2)OCO3)o1 | 11.2 µM [rising, single point] | – |
| COc1ccc(CCNC(=O)C(NS(=O)(=O)c2ccc3c(c2)CCN3C(C)=O)C(C)C)cc1OC (stereo not given) | 0.708 µM [falling, single point] | – |
| CCC(CC)c1nnc(NC(=O)CCN2C(=O)c3ccccc3C2=O)s1 | 0.891 µM [falling, full curve] | – |
| COc1cccc(Nc2nc3ccccc3n2C(C)C)c1 | 0.00501 µM [falling, full curve, poor fit] | – |
| CCCC(=O)Nc1nc(C)c(-c2csc(Nc3cc(OC)ccc3OC)n2)s1 | 6.31 µM [falling, partial curve, poor fit] | 12.6 µM [falling, single point] |
| CC(C)c1ccccc1-n1c(SCc2cc(=O)oc3ccc4ccccc4c23)nnc1-c1cccnc1 | 17.8 µM [rising, single point] | – |
| Cc1cc(C(=O)COC(=O)c2ccc(N)cc2)c(C)n1-c1c(C)n(C)n(-c2ccccc2)c1=O | 0.1 µM [rising, partial curve, poor fit] | 0.00708 µM [rising, full curve, poor fit] |
| CC(=O)c1c(C)[nH]c(C(=O)OCn2nnc3ccccc3c2=O)c1C | 14.1 µM [rising, partial curve] | 12.6 µM [rising, partial curve] |
| O=C(Cc1coc(-c2ccc(F)cc2)n1)Nc1ccccc1 | 35.5 µM [rising, single point] | – |
| COc1ccc(SCC(=O)Nc2ccc(N3CCN(C)CC3)c(F)c2)cc1 | 0.316 µM [falling, full curve] | – |
| CC(C)CCNC(=O)Cc1c(C(=O)O)[nH]c2ccc(Cl)cc12 | 5.01 µM [rising, partial curve, poor fit] | 2.51 µM [rising, partial curve, poor fit] |
| CCN(CC)C(=O)/C(=C/c1ccc2c(c1)OCO2)NC(=O)c1ccc(Br)cc1 | 20 µM [rising, partial curve, poor fit] | – |
| O=C(N/N=C/c1ccco1)c1ccccc1OCc1ccccc1Cl | 14.1 µM [rising, partial curve] | – |
| CCc1ccc(-n2c(C)cc(/C=N/NC(=O)OC)c2C)cc1 | 35.5 µM [rising, single point] | – |
| Cc1ccc(S(=O)(=O)N2CCN(C(=O)c3c(C)nn(-c4ccccc4)c3Cl)CC2)cc1 | 35.5 µM [rising, single point] | 31.6 µM [rising, single point] |
| c1ccc(CNc2nc(-c3ccc4c(c3)OCO4)nc3ccccc23)cc1 | 25.1 µM [falling, single point] | 14.1 µM [falling, single point] |
| CCOc1cc(CNC(=O)c2ccc3nc(C(C)C)oc3c2)cc(OCC)c1OCC | – | 35.5 µM [rising, single point] |
| COc1ccc(N2CCN(S(=O)(=O)CCNC(=O)Cc3ccc(OC)c(OC)c3)CC2)cc1 | 0.00316 µM [falling, full curve, poor fit] | – |
| O=[N+]([O-])/C=C/c1cn(Cc2ccc(F)cc2)c2ccccc12 | 25.1 µM [falling, single point] | 35.5 µM [falling, single point] |
| Cc1ccc(NC(=O)C2CCCN2S(=O)(=O)c2ccc3c(c2)CCC(=O)N3)cc1Cl (stereo not given) | 11.2 µM [rising, single point] | – |

| Structure (SMILES) | AC50 [1] | AC50 [2] |
| --- | --- | --- |
| CCc1nc(N2CCCC2C(=O)O)c2oc3ccccc3c2n1 (stereo not given) | – | 35.5 µM [rising, single point] |
| Cc1sc(NC(=O)CN(Cc2ccc(F)cc2)C(=O)C(C)(C)C)c(C(N)=O)c1C | 35.5 µM [rising, single point] | – |
| COc1ccc(-c2nc(CN3CCN(c4ncnc5ccccc45)CC3)c(C)o2)c(OC)c1 | 11.2 µM [falling, partial curve, poor fit] | 12.6 µM [falling, partial curve, poor fit] |
| O=C1c2ccccc2C(Nc2ccc(F)c(Cl)c2)N1Cc1ccco1 (stereo not given) | 28.2 µM [rising, single point] | 20 µM [rising, single point] |
| CCOC(=O)CN1C(c2ccc(O)cc2)Nc2ccc(Br)cc2C1c1ccccc1 (stereo not given) | 35.5 µM [falling, single point] | 35.5 µM [falling, single point] |
| Cc1cccc2cc(CN(CC3CCCO3)C(c3nnnn3Cc3ccco3)C(C)C)c(=O)[nH]c12 (stereo not given) | 10 µM [falling, partial curve] | – |
| CCN(CC)c1nc(C#N)cc(-c2ccc(OC)cc2)n1 | 35.5 µM [rising, single point] | – |
| O=C(NCCc1ccccc1)c1ccc(Cn2c(SCc3ccccc3F)nc3cccnc32)cc1 | 10 µM [falling, partial curve] | 10 µM [falling, partial curve] |
| O=C(CSc1nc(=O)n(Cc2ccncc2)c2c1CCC2)Nc1ccc(F)cc1F | – | 0.316 µM [rising, full curve, poor fit] |
| CCOc1cc2c3c(c1)C1(C(=O)N3C(C)(C)CC2C)C(C#N)=C(N)N2C(=C1C#N)Nc1ccccc12 (stereo not given) | 0.158 µM [rising, full curve, poor fit] | – |
| CCC1OC(=O)C(C)[C@@H](O[C@H]2C[C@@](C)(OC)C(O)C(C)O2)C(C)[C@@H](O[C@@H]2OC(C)CC(N(C)C)C2O)[C@@](C)(O)CC(C)C(=O)[C@@H](C)C(O)[C@]1(C)O (stereo not given in full) | 0.00562 µM [falling, full curve, poor fit] | – |
| COc1cc(NC(=O)C(=O)NNC(=O)C2CCCCC2)c(OC)cc1Cl | 0.0794 µM [rising, full curve, poor fit] | – |
| COC(=O)N/N=C/c1cn(CCCOc2ccc(C)cc2)c2ccccc12 | 25.1 µM [rising, single point] | 15.8 µM [rising, partial curve, poor fit] |
| CSc1nc2c(sc3ccccc32)c(=O)n1Cc1ccc(C)cc1 | – | 0.0501 µM [rising, full curve, poor fit] |
| NNc1nc(-c2ccccc2Cl)nc2sc3c(c12)CCCC3 | 12.6 µM [rising, partial curve] | – |
| Cc1ccc2c(CC(=O)N3CCN(S(=O)(=O)c4ccc5c(c4)OCCO5)CC3)coc2c1 | 15.8 µM [rising, partial curve] | 10 µM [rising, partial curve] |
| CCc1nc(-c2ccc(-c3ccc(OC)cc3)nc2OC)no1 | 11.2 µM [rising, partial curve] | – |
| COc1cccc(CNC(=O)C(=O)NCC(c2ccc3c(c2)OCO3)N2CCOCC2)c1 (stereo not given) | 11.2 µM [falling, partial curve, poor fit] | 11.2 µM [falling, partial curve] |
| COC(=O)C1=C(C(=O)OC)N2C=CC=CC2(C)C(C(=O)OC)=C1C(=O)OC (stereo not given) | 0.224 µM [rising, full curve, poor fit] | – |
| Cc1ccc(CNC(=O)c2cc(-c3ccc(C)cc3)nc3n[nH]c(-c4cccc([N+](=O)[O-])c4)c23)cc1 | 12.6 µM [falling, partial curve, poor fit] | – |
| OC1(c2cccnc2)CCN(Cc2nnnn2Cc2ccccc2)CC1 | 0.00501 µM [falling, full curve] | – |
| CCc1nnc(NC(=O)CSc2nnc3c(C)cc4c(C)ccc(C)c4n23)s1 | 3.98 µM [rising, full curve] | – |
| Cc1nn(-c2cccc(Cl)c2)c(Cl)c1/C=N/NC(=O)c1cccnc1 | 0.112 µM [rising, full curve, poor fit] | – |
| CNC(=S)N(CCc1c(C)[nH]c2ccc(C)cc12)Cc1ccc(OC)c(OC)c1 | 11.2 µM [rising, partial curve] | – |
| COc1ccc(NC(=O)Cc2c[nH]c3ccccc23)cc1S(=O)(=O)N1CCCCC1 | 28.2 µM [rising, single point] | – |
| Nc1ncnc(Sc2ccc(Cl)cc2)c1[N+](=O)[O-] | 22.4 µM [rising, partial curve, poor fit] | – |
| Cc1c(C(=O)Nc2ccc(F)c(C(F)(F)F)c2)sc2nc(-c3ccccc3)cn12 | 3.16 µM [falling, partial curve, poor fit] | 2.51 µM [falling, full curve, poor fit] |

Pulled by compound from the entries so far, four records:

| Structure (SMILES) | AC50 [1] | AC50 [2] |
| --- | --- | --- |
| CCN(CC)c1nc(C#N)cc(-c2ccc(OC)cc2)n1 | 35.5 µM [rising, single point] | – |
| NNc1nc(-c2ccccc2Cl)nc2sc3c(c12)CCCC3 | 12.6 µM [rising, partial curve] | – |
| CSc1nc2c(sc3ccccc32)c(=O)n1Cc1ccc(C)cc1 | – | 0.0501 µM [rising, full curve, poor fit] |
| Nc1ncnc(Sc2ccc(Cl)cc2)c1[N+](=O)[O-] | 22.4 µM [rising, partial curve, poor fit] | – |
